# Laboratory results: PubChem BioAssay AID1259254 (NCATS, 2017)
# Test: 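Gene knock-downs that lead to re-replication, shown by excess G2 DNA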 (primary screen)
# Cells: human HCT116 colorectal cancer cells
# Reagents: single siRNA against human genes
# Time to read-out: 3 days
# Read-out: 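Imaged Hoechst DNA stain sorts each cell into a cycle phase by DNA amount; per plate, G2 fraction set to 0% for non-targeting and 100% for GMNN siRNA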
# Direction: G2 robust z-score: higher = more G2 cells, more excess DNA replication
# Active means: 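An siRNA counts as active if its G2 robust z-score lies at least 5 MADs above the screen median; here such calls match roughly 38% of GMNN control or more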
# This is one part, drawn at random, of about 59,000 deposited reagents. In the full data, about 1,550 (2.6%) are marked active. 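G2 share is only a proxy for re-replication; each gene was hit by three separate siRNAs, and active genes were retested.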 Further read-outs or replicates are left out here. The record does not give: the amount of reagent.
gene,PubChem SID,G2 robust z-score,Outcome
BAZ1A (bromodomain adjacent to zinc finger domain 1A),SID160730127,0.617,inactive
BAZ1A (bromodomain adjacent to zinc finger domain 1A),SID160730129,-0.813,inactive
BAZ1A (bromodomain adjacent to zinc finger domain 1A),SID160730130,-1.36,inactive
S100Z (S100 calcium binding protein Z),SID160760433,-0.0269,inactive
S100Z (S100 calcium binding protein Z),SID160760434,0.7,inactive
S100Z (S100 calcium binding protein Z),SID160760435,0.275,inactive
ATP9B (ATPase phospholipid transporting 9B),SID160765318,-0.15,inactive
ATP9B (ATPase phospholipid transporting 9B),SID160765319,-0.673,inactive
ATP9B (ATPase phospholipid transporting 9B),SID160765320,-0.945,inactive
KCNA10 (potassium voltage-gated channel subfamily A member 10),SID160776125,4.65,inactive
KCNA10 (potassium voltage-gated channel subfamily A member 10),SID160776126,0.957,inactive
KCNA10 (potassium voltage-gated channel subfamily A member 10),SID160776127,0.135,inactive
ADGRE1 (adhesion G protein-coupled receptor E1),SID160760180,-1.67,inactive
ADGRE1 (adhesion G protein-coupled receptor E1),SID160760191,-0.463,inactive
ADGRE1 (adhesion G protein-coupled receptor E1),SID160760201,-0.365,inactive
HERC5 (HECT and RLD domain containing E3 ubiquitin protein ligase 5),SID160740284,-0.529,inactive
HERC5 (HECT and RLD domain containing E3 ubiquitin protein ligase 5),SID160740285,2.49,inactive
HERC5 (HECT and RLD domain containing E3 ubiquitin protein ligase 5),SID160740286,-0.871,inactive
ADGRA1 (adhesion G protein-coupled receptor A1),SID160752232,-0.41,inactive
ADGRA1 (adhesion G protein-coupled receptor A1),SID160752234,-1.23,inactive
ADGRA1 (adhesion G protein-coupled receptor A1),SID160752235,-0.433,inactive
KRTAP7-1 (keratin associated protein 7-1),SID160763974,-0.651,inactive
KRTAP7-1 (keratin associated protein 7-1),SID160763975,0.354,inactive
KRTAP7-1 (keratin associated protein 7-1),SID160763976,0.522,inactive
ALAS2 (5'-aminolevulinate synthase 2),SID160716114,-0.507,inactive
ALAS2 (5'-aminolevulinate synthase 2),SID160716125,1.02,inactive
ALAS2 (5'-aminolevulinate synthase 2),SID160716133,5.28,active
ABCB5 (ATP binding cassette subfamily B member 5),SID160764400,0.48,inactive
ABCB5 (ATP binding cassette subfamily B member 5),SID160764401,-1.35,inactive
ABCB5 (ATP binding cassette subfamily B member 5),SID160764402,-0.745,inactive
DYDC2 (DPY30 domain containing 2),SID160752178,2.6,inactive
DYDC2 (DPY30 domain containing 2),SID160752179,-0.084,inactive
DYDC2 (DPY30 domain containing 2),SID160752180,-0.173,inactive

Entries above whose gene name begins with D or d:
gene,PubChem SID,G2 robust z-score,Outcome
DYDC2 (DPY30 domain containing 2),SID160752178,2.6,inactive
DYDC2 (DPY30 domain containing 2),SID160752179,-0.084,inactive
DYDC2 (DPY30 domain containing 2),SID160752180,-0.173,inactive

Next reagents follow.
gene,PubChem SID,G2 robust z-score,Outcome
"HLA-C (major histocompatibility complex, class I, C)",SID160723858,-0.0211,inactive
"HLA-C (major histocompatibility complex, class I, C)",SID160774977,0.799,inactive
"HLA-C (major histocompatibility complex, class I, C)",SID160774978,-0.777,inactive
IST1 (IST1 factor associated with ESCRT-III),SID160723117,0.276,inactive
IST1 (IST1 factor associated with ESCRT-III),SID160723119,-0.132,inactive
IST1 (IST1 factor associated with ESCRT-III),SID160723120,2.29,inactive
GDNF (glial cell derived neurotrophic factor),SID160732882,-0.0877,inactive
GDNF (glial cell derived neurotrophic factor),SID160770386,1.04,inactive
GDNF (glial cell derived neurotrophic factor),SID160770395,0.728,inactive
CSAG2 (CSAG family member 2),SID160726702,0.264,inactive
CSAG2 (CSAG family member 2),SID160726704,0.00843,inactive
CSAG2 (CSAG family member 2),SID160771826,4.08,inactive
OR6K3 (olfactory receptor family 6 subfamily K member 3),SID160766639,1.28,inactive
OR6K3 (olfactory receptor family 6 subfamily K member 3),SID160766640,-0.963,inactive
OR6K3 (olfactory receptor family 6 subfamily K member 3),SID160766642,-0.877,inactive
MSANTD4 (Myb/SANT DNA binding domain containing 4 with coiled-coils),SID160752239,3.76,inactive
MSANTD4 (Myb/SANT DNA binding domain containing 4 with coiled-coils),SID160752240,0.00988,inactive
MSANTD4 (Myb/SANT DNA binding domain containing 4 with coiled-coils),SID160752241,-0.435,inactive
MDH1 (malate dehydrogenase 1),SID160777082,0.375,inactive
MDH1 (malate dehydrogenase 1),SID160777084,-0.758,inactive
MDH1 (malate dehydrogenase 1),SID160777085,0.499,inactive
ZEB2 (zinc finger E-box binding homeobox 2),SID160723220,-0.84,inactive
ZEB2 (zinc finger E-box binding homeobox 2),SID160723221,1.41,inactive
ZEB2 (zinc finger E-box binding homeobox 2),SID160723222,-0.197,inactive
MSRA (methionine sulfoxide reductase A),SID160777482,1.53,inactive
MSRA (methionine sulfoxide reductase A),SID160777483,-0.597,inactive
MSRA (methionine sulfoxide reductase A),SID160777484,3.87,inactive
ZNF646 (zinc finger protein 646),SID160722912,-0.268,inactive
ZNF646 (zinc finger protein 646),SID160722914,-1.38,inactive
ZNF646 (zinc finger protein 646),SID160722915,0.326,inactive
CHMP4A (charged multivesicular body protein 4A),SID160739018,-0.658,inactive
CHMP4A (charged multivesicular body protein 4A),SID160739019,2.65,inactive
CHMP4A (charged multivesicular body protein 4A),SID160739020,-0.937,inactive
AFTPH (aftiphilin),SID160742216,-0.689,inactive
AFTPH (aftiphilin),SID160742217,0.0811,inactive
AFTPH (aftiphilin),SID160742218,-0.558,inactive
ATRAID (all-trans retinoic acid induced differentiation factor),SID160740707,0.324,inactive
ATRAID (all-trans retinoic acid induced differentiation factor),SID160740708,1.23,inactive
ATRAID (all-trans retinoic acid induced differentiation factor),SID160740709,0.945,inactive
"PCDHGB5 (protocadherin gamma subfamily B, 5)",SID160744761,0.951,inactive
"PCDHGB5 (protocadherin gamma subfamily B, 5)",SID160744763,-0.00522,inactive
"PCDHGB5 (protocadherin gamma subfamily B, 5)",SID160744764,0.49,inactive
KRT6C (keratin 6C),SID160731025,2.17,inactive
KRT6C (keratin 6C),SID160763900,0.265,inactive
KRT6C (keratin 6C),SID160763901,0.00332,inactive
C1orf87 (chromosome 1 open reading frame 87),SID160756676,-0.896,inactive
C1orf87 (chromosome 1 open reading frame 87),SID160756677,2.67,inactive
C1orf87 (chromosome 1 open reading frame 87),SID160756678,-0.682,inactive
ASIC1 (acid sensing ion channel subunit 1),SID160777588,-0.578,inactive
ASIC1 (acid sensing ion channel subunit 1),SID160777597,-1.38,inactive
ASIC1 (acid sensing ion channel subunit 1),SID160777607,0.197,inactive
GSAP (gamma-secretase activating protein),SID160741571,-0.736,inactive
GSAP (gamma-secretase activating protein),SID160741573,0.0302,inactive
GSAP (gamma-secretase activating protein),SID160741574,-0.776,inactive
